Results are given in words; binding and its absence hold for the method and conditions named. Binding seen in cells or lysates may run through a third protein. Here binding means that the protein was enriched with, or labelled near, the bait; the list need not be complete.
How the values were obtained:
[1] = biological target: BRG1 (human (endogenous in Raji, MLS, EWS and HT1080 cell lines)) (UniProt P51532); experiment: affinity purification with mass spectrometry; biotinylated anti-BRG1 antibody and streptavidin Dynabeads on nuclear extracts (150 mM salt) of MLS 402-91, MLS 2645-94, EWS TC-71 and EWS IOR/CAR; washes in 10 mM TEAB; 1% formic acid eluates analysed by MS (Study 2)
[2] = biological target: GST‐tagged EWSR1‐NTD (human) (UniProt Q01844); experiment: affinity purification with mass spectrometry; GST-tagged FET-NTD baits on Glutathione-Sepharose 4B incubated with Raji cell extract 2-4 h at 4°C; washed four times in 20 mM Tris pH 7.5, 0.5% NP-40, 100 mM NaCl, 2 mM MgCl2; SDS-PAGE, excised gel bands analysed by MS (Study 1); only the target purified
[3] = biological target: GST‐tagged FUS‐NTD (human) (UniProt P35637); experiment: as above

Protein sequences, listed by entry. Tags and fused reporters are not part of them.
UniProt P51532: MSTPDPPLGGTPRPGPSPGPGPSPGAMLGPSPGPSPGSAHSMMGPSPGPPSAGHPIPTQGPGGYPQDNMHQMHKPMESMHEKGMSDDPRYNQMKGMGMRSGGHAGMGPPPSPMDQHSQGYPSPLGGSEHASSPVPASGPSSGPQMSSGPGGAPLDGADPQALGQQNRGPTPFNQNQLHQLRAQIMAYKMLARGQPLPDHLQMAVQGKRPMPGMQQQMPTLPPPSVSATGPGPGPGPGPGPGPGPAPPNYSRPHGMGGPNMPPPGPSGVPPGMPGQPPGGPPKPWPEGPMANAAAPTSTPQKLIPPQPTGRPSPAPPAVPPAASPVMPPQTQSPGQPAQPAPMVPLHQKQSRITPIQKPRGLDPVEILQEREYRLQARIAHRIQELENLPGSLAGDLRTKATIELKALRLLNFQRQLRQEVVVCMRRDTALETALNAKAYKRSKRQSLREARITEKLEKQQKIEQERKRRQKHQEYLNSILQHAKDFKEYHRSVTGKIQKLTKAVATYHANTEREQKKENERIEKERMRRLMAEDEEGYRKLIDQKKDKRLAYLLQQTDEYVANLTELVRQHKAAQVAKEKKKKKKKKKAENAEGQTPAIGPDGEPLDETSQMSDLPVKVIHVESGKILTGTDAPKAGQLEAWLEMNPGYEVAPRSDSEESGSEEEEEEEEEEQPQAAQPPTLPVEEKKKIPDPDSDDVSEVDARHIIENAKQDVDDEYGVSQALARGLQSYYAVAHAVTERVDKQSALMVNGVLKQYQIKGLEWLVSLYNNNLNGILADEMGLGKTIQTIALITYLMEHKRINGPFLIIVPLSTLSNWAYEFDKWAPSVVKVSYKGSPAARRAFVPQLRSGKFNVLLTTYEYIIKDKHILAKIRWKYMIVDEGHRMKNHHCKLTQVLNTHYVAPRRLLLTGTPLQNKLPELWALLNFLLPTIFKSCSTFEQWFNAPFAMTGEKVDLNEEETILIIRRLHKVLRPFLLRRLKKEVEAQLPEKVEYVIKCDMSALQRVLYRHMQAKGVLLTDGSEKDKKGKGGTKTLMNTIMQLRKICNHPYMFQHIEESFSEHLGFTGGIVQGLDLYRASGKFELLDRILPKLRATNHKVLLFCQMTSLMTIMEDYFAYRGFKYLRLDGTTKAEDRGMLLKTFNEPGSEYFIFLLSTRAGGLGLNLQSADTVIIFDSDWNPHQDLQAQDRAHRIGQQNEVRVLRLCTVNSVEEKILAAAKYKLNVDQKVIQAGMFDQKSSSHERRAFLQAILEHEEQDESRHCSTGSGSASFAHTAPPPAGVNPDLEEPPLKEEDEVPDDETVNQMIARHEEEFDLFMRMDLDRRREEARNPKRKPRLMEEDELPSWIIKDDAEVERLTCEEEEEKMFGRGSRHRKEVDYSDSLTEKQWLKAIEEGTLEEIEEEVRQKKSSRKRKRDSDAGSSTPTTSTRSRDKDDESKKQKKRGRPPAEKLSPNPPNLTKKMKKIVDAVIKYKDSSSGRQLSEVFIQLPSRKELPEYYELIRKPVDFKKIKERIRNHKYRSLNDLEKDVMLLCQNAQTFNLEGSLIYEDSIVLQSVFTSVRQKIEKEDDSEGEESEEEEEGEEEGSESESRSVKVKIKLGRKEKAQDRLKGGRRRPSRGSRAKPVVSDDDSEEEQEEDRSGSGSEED
UniProt Q01844: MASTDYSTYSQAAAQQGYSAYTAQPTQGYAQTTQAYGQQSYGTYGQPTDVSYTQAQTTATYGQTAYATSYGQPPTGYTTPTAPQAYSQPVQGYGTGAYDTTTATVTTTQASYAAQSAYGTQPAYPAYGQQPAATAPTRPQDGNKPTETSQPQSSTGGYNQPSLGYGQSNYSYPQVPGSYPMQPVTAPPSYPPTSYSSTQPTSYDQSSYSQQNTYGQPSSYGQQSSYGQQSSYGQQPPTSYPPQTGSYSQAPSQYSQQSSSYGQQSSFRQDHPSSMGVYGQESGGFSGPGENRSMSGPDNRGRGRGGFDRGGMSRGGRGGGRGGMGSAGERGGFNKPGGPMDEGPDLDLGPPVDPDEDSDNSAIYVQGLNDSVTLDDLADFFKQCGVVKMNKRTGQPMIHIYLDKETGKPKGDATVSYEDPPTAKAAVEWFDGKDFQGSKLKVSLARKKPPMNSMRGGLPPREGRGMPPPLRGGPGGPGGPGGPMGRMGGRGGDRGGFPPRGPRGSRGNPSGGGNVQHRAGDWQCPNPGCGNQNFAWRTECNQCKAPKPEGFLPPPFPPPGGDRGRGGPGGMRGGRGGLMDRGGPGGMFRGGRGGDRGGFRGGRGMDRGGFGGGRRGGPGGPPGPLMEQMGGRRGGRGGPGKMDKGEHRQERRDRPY
UniProt Q92785: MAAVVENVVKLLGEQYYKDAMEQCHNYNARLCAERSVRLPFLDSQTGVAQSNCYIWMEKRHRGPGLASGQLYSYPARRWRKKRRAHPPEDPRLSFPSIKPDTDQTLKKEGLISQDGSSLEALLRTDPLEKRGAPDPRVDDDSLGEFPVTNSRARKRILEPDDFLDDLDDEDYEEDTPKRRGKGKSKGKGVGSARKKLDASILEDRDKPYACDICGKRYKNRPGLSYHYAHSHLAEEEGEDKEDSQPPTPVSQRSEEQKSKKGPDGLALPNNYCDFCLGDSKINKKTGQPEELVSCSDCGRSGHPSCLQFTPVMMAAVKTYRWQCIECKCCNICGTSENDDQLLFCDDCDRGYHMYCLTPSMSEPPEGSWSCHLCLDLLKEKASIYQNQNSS
UniProt Q12824: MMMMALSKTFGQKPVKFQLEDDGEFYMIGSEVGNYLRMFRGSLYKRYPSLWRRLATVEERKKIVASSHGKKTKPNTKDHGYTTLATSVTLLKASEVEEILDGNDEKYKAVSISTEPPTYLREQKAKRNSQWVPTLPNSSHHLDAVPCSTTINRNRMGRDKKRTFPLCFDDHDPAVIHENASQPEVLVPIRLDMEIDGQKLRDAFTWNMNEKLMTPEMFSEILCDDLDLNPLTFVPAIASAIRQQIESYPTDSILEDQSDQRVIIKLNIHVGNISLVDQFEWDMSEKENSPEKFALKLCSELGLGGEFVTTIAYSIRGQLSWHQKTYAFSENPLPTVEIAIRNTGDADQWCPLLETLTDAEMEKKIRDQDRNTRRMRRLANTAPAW
UniProt Q969G3: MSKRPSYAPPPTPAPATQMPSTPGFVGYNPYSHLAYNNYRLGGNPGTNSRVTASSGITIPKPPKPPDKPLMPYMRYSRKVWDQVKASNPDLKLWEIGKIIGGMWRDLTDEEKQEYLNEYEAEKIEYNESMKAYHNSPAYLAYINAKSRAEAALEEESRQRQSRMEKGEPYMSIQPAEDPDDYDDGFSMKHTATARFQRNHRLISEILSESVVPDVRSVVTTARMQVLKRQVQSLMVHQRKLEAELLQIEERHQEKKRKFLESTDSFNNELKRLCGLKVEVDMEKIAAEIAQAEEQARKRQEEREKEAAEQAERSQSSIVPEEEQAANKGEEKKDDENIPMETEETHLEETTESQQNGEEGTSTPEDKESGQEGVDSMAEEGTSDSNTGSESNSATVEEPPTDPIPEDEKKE
UniProt Q92925: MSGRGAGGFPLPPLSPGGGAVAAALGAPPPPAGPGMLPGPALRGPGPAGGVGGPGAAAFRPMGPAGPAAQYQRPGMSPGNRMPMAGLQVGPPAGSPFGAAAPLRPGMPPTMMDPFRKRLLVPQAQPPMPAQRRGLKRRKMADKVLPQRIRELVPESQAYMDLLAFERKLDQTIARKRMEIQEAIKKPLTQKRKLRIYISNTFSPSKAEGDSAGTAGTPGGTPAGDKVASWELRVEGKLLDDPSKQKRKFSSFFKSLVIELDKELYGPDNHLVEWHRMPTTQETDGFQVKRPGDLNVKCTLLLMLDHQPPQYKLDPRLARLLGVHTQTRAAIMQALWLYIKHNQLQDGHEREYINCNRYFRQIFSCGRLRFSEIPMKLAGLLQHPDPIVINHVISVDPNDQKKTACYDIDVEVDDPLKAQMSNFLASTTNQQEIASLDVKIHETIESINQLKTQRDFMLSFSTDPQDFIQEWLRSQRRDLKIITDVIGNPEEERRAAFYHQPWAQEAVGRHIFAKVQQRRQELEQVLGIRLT
UniProt Q92922: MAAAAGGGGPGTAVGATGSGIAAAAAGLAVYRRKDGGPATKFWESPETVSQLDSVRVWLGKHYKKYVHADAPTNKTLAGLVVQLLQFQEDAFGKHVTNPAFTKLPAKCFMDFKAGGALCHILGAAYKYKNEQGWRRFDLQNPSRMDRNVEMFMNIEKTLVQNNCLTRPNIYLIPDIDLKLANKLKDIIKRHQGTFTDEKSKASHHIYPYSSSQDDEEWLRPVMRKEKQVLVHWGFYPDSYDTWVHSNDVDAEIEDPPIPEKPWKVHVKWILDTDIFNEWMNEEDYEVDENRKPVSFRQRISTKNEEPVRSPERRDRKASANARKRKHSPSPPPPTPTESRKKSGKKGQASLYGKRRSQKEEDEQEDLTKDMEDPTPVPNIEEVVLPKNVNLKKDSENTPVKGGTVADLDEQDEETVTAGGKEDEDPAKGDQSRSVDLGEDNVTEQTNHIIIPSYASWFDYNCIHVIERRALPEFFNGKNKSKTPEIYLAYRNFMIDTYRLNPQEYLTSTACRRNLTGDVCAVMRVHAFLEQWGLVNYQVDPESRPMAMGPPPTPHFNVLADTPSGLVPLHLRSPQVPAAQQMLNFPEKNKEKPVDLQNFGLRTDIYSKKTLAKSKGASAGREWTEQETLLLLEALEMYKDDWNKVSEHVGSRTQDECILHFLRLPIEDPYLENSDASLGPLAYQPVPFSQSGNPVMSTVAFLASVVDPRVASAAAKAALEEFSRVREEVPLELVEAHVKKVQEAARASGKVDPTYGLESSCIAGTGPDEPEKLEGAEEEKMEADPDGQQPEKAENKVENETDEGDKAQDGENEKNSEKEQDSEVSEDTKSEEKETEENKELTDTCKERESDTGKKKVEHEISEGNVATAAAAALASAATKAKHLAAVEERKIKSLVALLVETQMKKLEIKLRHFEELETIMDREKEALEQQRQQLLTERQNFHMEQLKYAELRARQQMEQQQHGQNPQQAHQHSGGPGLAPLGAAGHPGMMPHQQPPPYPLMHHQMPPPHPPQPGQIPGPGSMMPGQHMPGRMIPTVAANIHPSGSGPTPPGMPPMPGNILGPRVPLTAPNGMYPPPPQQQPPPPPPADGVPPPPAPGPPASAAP
UniProt Q8TAQ2: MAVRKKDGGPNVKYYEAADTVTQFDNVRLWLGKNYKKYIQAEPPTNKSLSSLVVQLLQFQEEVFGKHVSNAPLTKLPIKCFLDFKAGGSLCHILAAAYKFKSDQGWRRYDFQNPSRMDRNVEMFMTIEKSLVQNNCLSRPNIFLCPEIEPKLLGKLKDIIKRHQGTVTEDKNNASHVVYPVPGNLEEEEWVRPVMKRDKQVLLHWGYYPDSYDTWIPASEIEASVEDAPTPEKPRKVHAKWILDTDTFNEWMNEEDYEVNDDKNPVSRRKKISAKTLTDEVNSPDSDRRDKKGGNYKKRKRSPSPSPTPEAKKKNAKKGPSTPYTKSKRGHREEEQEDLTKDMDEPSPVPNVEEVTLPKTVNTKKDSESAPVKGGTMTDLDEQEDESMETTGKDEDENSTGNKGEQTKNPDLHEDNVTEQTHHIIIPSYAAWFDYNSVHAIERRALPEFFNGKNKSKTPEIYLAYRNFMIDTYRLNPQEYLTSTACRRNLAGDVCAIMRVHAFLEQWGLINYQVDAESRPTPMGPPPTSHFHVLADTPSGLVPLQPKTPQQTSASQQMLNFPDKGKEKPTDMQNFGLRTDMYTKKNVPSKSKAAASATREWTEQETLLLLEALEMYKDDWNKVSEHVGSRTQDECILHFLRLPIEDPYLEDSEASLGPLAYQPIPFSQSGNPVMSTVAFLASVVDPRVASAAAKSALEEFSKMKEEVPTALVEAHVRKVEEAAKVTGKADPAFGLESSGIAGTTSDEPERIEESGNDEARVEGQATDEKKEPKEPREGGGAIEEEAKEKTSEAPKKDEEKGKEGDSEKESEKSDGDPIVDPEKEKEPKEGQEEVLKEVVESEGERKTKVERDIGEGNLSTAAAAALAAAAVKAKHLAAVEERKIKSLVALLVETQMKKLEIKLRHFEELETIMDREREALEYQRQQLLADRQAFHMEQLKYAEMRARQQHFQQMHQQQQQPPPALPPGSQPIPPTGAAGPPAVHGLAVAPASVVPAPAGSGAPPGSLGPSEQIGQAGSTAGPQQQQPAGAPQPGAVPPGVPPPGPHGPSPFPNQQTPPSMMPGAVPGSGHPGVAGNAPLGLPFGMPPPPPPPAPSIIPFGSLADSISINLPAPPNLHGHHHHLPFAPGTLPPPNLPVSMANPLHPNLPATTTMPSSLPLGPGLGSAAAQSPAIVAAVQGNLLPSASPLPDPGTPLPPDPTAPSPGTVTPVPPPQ

With BAF45D (from UniProt Q92785 1-391) the binding [1] was “binds”.

For BAF47 (from UniProt Q12824 1-385), the binding [1] was “binds”.

BAF57 (from UniProt Q969G3 1-411) was tested, and the binding [1] was “binds”.

In the case of BAF60B (from UniProt Q92925 1-531), the binding [1] is reported as “binds”.

With BAF60C (from UniProt Q6STE5 1-483) the binding [1] was “binds”.

With BAF155 (from UniProt Q92922 1-1105) the binding [2] was “binds” and the binding [3] was “binds”.

For BAF170 (from UniProt Q8TAQ2 1-1214), the binding [1] was “binds”, the binding [2] was “binds” and the binding [3] was “binds”.

In the case of BRG1 (from UniProt P51532 1-1647), the binding [2] is reported as “binds” and the binding [3] is reported as “binds”.

For EWSR1 (from UniProt Q01844 1-656), the binding [1] was “binds”.

FUS (from UniProt P35637 1-526) was tested, and the binding [1] was “binds”.

B1: BAF45A (protein, UniProt Q8WUB8 1-498)
chain: MAAAAGPGAALSPRPCDSDPATPGAQSPKDDNEDNSNDGTQPSKRRRMGSGDSSRSCETSSQDLGFSYYPAENLIEYKWPPDETGEYYMLQEQVSEYLGVTSFKRKYPDLERRDLSHKEKLYLRELNVITETQCTLGLTALRSDEVIDLMIKEYPAKHAEYSVILQEKERQRITDHYKEYSQMQQQNTQKVEASKVPEYIKKAAKKAAEFNSNLNRERMEERRAYFDLQTHVIQVPQGKYKVLPTERTKVSSYPVALIPGQFQEYYKRYSPDELRYLPLNTALYEPPLDPELPALDSDGDSDDGEDGRGDEKRKNKGTSDSSSGNVSEGESPPDSQEDSFQGRQKSKDKAATPRKDGPKRSVLSKSVPGYKPKVIPNAICGICLKGKESNKKGKAESLIHCSQCENSGHPSCLDMTMELVSMIKTYPWQCMECKTCIICGQPHHEEEMMFCDMCDRGYHTFCVGLGAIPSGRWICDCCQRAPPTPRKVGRRGKNSKEG
For B1, the binding [1] was “binds”.
